Results taken from patent EP0672136B1, “POLYPEPTIDES, DERIVED FROM ENDONEXIN 2, HAVING HEPATITIS B VIRUS RECEPTOR ACTIVITY AND THEIR USE IN DIAGNOSTIC AND PHARMACEUTICAL COMPOSITIONS” (priority 1992, dated 1994).
Part of at least one peptide drawing is inferred or uncertain, most often the ends. Ends that are not written are not given here.

Amino acid sequences for entries named in this document (tags omitted). Residues count along the entry.
UniProt P03141, 175-400: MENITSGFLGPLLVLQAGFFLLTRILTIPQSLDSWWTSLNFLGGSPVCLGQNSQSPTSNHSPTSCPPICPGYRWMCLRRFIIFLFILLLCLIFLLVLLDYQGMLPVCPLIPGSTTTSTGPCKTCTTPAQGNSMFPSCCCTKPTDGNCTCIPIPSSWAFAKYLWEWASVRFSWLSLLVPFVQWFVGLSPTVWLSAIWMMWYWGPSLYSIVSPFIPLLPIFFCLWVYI

Biological target: T1, major HBsAg (Hepatitis B virus genotype A2 subtype adw2, UniProt P03141)
T1 construct: purchased Merck Sharp and Dohme Laboratories (gift of Dr. W. J. Miller, not bought); host or cells: yeast
Assay: Binding of radiolabeled endonexin II to immobilized major HBsAg in the presence of endonexin II peptide fractions (F-peak inhibition assay)
Parameters: species or system HBV
Settings: fractions of acid-hydrolysed human liver endonexin-II; triplicate; Figure 23A
Protocol: Purified endonexin-II was treated according to the method as described in example 3. (Hydrolysis in 3% formic acid at 112°C for 4h). After treatment with formic acid, the protein digest was separated by reversed phase HPLC on a Vydac C-4 column (2.1 x 250 mm, Hesperia, CA, USA) as described in example 3. Peptide peaks were registered on a chart recorder and collected manually.
Binding experiments were performed according to the method as described in example 1 and 5. However, binding of radiolabeled endonexin-II to immobilized major HBsAg was carried out in the presence of individual peak fractions of unlabeled digested human liver endonexin-II (see above). The experiment was performed in triplicate. […] Therefore, these peptide was considered as one of the important major HBsAg-binding epitopes on endonexin-II. By sequencing an identical peak fraction in a parallel experiment, peptides corresponding to peaks F and S were determined as amino acids 266 to 280 (peak F, DHTLIRVMVSRSEID) and amino acids 92-138 (peak S): […]) of human endonexin II (numbering according to Kaplan et al., 1988).

Sequence	inhibition of binding of radiolabeled endonexin-II to major HBsAg by HPLC peak fraction
DAYELKHALKGAGTNEKVLTEIIASRTPEELRAIKQVYEEEYGSSLE [Peptide S]	inhibit binding of radiolabeled endonexin-II to major HBsAg significantly more than the others
DHTLIRVMVSRSEID [Peptide F, DHTLIRVMVSRSEID]	inhibit binding of radiolabeled endonexin-II to major HBsAg significantly more than the others
